# Measurements from the supplement of paper PMC8728848.
# This is one part of the list.
# Legend:
# Assay in all cases: glycan array binding signal (z-score within array); higher = stronger binding
# Conditions in all cases: glycan notation: IUPAC condensed, linker removed
# [1] = molecular target: Neu5Ac(a2-6)GlcNAc(b1-4)GlcNAc(b1-4)GlcNAc
# Outline: (§1)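 Arrays were curated from the Consortium for Functional Glycomics database, 3228 in total, and kept only where the protein sequence was available. Binding is expressed as a within-array Z-score. This score was averaged across arrays of the same protein sequence at different concentrations or buffers and across linkers, and negative values can be read as non-binding.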
# Neu5Ac(a2-8)Neu5Ac = molecular target: Neu5Ac(a2-8)Neu5Ac
# Outline: as §1
# [2] = molecular target: Neu5Ac(a2-8)Neu5Ac(a2-3)Gal(b1-3)GalNAc(b1-4)[Neu5Ac(a2-3)]Gal(b1-4)Glc
# Outline: as §1
# [3] = molecular target: Neu5Ac(a2-8)Neu5Ac(a2-3)Gal(b1-3)GalNAc(b1-4)[Neu5Ac(a2-8)Neu5Ac(a2-3)]Gal(b1-4)Glc
# Outline: as §1
# [4] = molecular target: Neu5Ac(a2-8)Neu5Ac(a2-3)Gal(b1-4)Glc
# Outline: as §1
# [5] = molecular target: Neu5Ac(a2-8)Neu5Ac(a2-3)Gal(b1-4)GlcNAc
# Outline: as §1
# [6] = molecular target: Neu5Ac(a2-8)Neu5Ac(a2-3)[Gal(b1-3)GalNAc(b1-4)]Gal(b1-4)Glc
# Outline: as §1
# [7] = molecular target: Neu5Ac(a2-8)Neu5Ac(a2-3)[GalNAc(b1-4)]Gal(b1-4)Glc
# Outline: as §1
# [8] = molecular target: Neu5Ac(a2-8)Neu5Ac(a2-8)Neu5Ac
# Outline: as §1
# [9] = molecular target: Neu5Ac(a2-8)Neu5Ac(a2-8)Neu5Ac(a2-3)Gal(b1-4)Glc
# Outline: as §1
# [10] = molecular target: Neu5Ac(a2-8)Neu5Ac(a2-8)Neu5Ac(a2-3)[Gal(b1-3)GalNAc(b1-4)]Gal(b1-4)Glc
# Outline: as §1
# [11] = molecular target: Neu5Ac(a2-8)Neu5Ac(a2-8)Neu5Ac(a2-3)[GalNAc(b1-4)]Gal(b1-4)Glc
# Outline: as §1
# [12] = molecular target: Neu5Ac(a2-8)Neu5Ac(a2-8)Neu5Ac(a2-8)Neu5Ac(a2-3)[GalNAc(b1-4)]Gal(b1-4)Glc
# Outline: as §1
# [13] = molecular target: Neu5Ac(a2-8)Neu5Gc(a2-3)Gal(b1-4)GlcNAc
# Outline: as §1
# [14] = molecular target: Neu5Ac(b2-6)Gal(b1-4)GlcNAc
# Outline: as §1
# Neu5Ac(b2-6)GalNAc = molecular target: Neu5Ac(b2-6)GalNAc
# Outline: as §1
# [15] = molecular target: Neu5Ac9Ac(a2-3)Gal(b1-3)GlcNAc
# Outline: as §1
# [16] = molecular target: Neu5Ac9Ac(a2-3)Gal(b1-4)GlcNAc
# Outline: as §1
# [17] = molecular target: Neu5Ac9Ac(a2-6)Gal(b1-4)GlcNAc
# Outline: as §1
# [18] = molecular target: Neu5Gc(a2-3)Gal(b1-3)GlcNAc
# Outline: as §1
# [19] = molecular target: Neu5Gc(a2-3)Gal(b1-3)[Fuc(a1-4)]GlcNAc
# Outline: as §1
# Neu5Gc(a2-3)Gal(b1-4)Glc = molecular target: Neu5Gc(a2-3)Gal(b1-4)Glc
# Outline: as §1
# [20] = molecular target: Neu5Gc(a2-3)Gal(b1-4)GlcNAc
# Outline: as §1
# [21] = molecular target: Neu5Gc(a2-3)Gal(b1-4)GlcNAc(b1-3)Gal(b1-4)GlcNAc(b1-2)Man(a1-3)[Neu5Gc(a2-3)Gal(b1-4)GlcNAc(b1-3)Gal(b1-4)GlcNAc(b1-2)Man(a1-6)]Man(b1-4)GlcNAc(b1-4)GlcNAc
# Outline: as §1
# [22] = molecular target: Neu5Gc(a2-3)Gal(b1-4)[Fuc(a1-3)]GlcNAc
# Outline: as §1
# [23] = molecular target: Neu5Gc(a2-6)Gal(b1-4)GlcNAc
# Outline: as §1
# Neu5Gc(a2-6)GalNAc = molecular target: Neu5Gc(a2-6)GalNAc
# Outline: as §1
# [24] = molecular target: Neu5Gc(a2-8)Neu5Ac(a2-3)Gal(b1-4)GlcNAc
# Outline: as §1
# [25] = molecular target: Neu5Gc(a2-8)Neu5Gc(a2-3)Gal(b1-4)GlcNAc
# Outline: as §1
# [26] = molecular target: Neu5Gc(a2-8)Neu5Gc(a2-3)Gal(b1-4)GlcNAc(b1-3)Gal(b1-4)GlcNAc
# Outline: as §1
# [27] = molecular target: Neu5Gc(a2-8)Neu5Gc(a2-6)Gal(b1-4)GlcNAc
# Outline: as §1
# [28] = molecular target: Neu5Gc(b2-6)Gal(b1-4)GlcNAc
# Outline: as §1
binder,measurement,setting,value
Epa11 (Candida glabrata) (protein) MGSSHHHHHHSSGLVPRGSHMASSNAPNYPVGCSPSVGTQLTPGLSLEVYAYPMDGNNGYCWNATYKDPEFPRSGYLKNKLLGKADGVVGPLNFLAKNKDCSPKVDTLPAGFNFPQPITVTNFTMVLFGYLAPKQSGKYTFKLLADDLLLLNLGATNAFDCCNREATKNNLGEFLAYNLWPNQDKNVTVYLEKGVYYPLRLFFNNRDGGSQLDFSYYFNDSPAPLTDFSGMFFSVPDGAECPARI,glycan array binding signal (z-score),[1],-0.053
same,glycan array binding signal (z-score),Neu5Ac(a2-8)Neu5Ac,-0.002
same,glycan array binding signal (z-score),[2],0.184
same,glycan array binding signal (z-score),[3],-0.127
same,glycan array binding signal (z-score),[4],-0.615
same,glycan array binding signal (z-score),[5],-0.677
same,glycan array binding signal (z-score),[6],0.019
same,glycan array binding signal (z-score),[7],0.267
same,glycan array binding signal (z-score),[8],-0.255
same,glycan array binding signal (z-score),[9],-0.019
same,glycan array binding signal (z-score),[10],-0.155
same,glycan array binding signal (z-score),[11],1.3
same,glycan array binding signal (z-score),[12],-0.224
same,glycan array binding signal (z-score),[13],-0.419
same,glycan array binding signal (z-score),[14],0.947
same,glycan array binding signal (z-score),Neu5Ac(b2-6)GalNAc,-0.375
same,glycan array binding signal (z-score),[15],-0.333
same,glycan array binding signal (z-score),[16],-0.173
same,glycan array binding signal (z-score),[17],-0.587
same,glycan array binding signal (z-score),[18],0.029
same,glycan array binding signal (z-score),[19],0.146
same,glycan array binding signal (z-score),Neu5Gc(a2-3)Gal(b1-4)Glc,0.849
same,glycan array binding signal (z-score),[20],-0.644
same,glycan array binding signal (z-score),[21],-0.587
same,glycan array binding signal (z-score),[22],-0.055
same,glycan array binding signal (z-score),[23],-0.264
same,glycan array binding signal (z-score),Neu5Gc(a2-6)GalNAc,-0.604
same,glycan array binding signal (z-score),[24],0.168
same,glycan array binding signal (z-score),[25],0.024
same,glycan array binding signal (z-score),[26],-0.015
same,glycan array binding signal (z-score),[27],-0.614
same,glycan array binding signal (z-score),[28],-0.169

# Random excerpt: two entries already listed.
binder,measurement,setting,value
Epa11 (Candida glabrata) (protein) MGSSHHHHHHSSGLVPRGSHMASSNAPNYPVGCSPSVGTQLTPGLSLEVYAYPMDGNNGYCWNATYKDPEFPRSGYLKNKLLGKADGVVGPLNFLAKNKDCSPKVDTLPAGFNFPQPITVTNFTMVLFGYLAPKQSGKYTFKLLADDLLLLNLGATNAFDCCNREATKNNLGEFLAYNLWPNQDKNVTVYLEKGVYYPLRLFFNNRDGGSQLDFSYYFNDSPAPLTDFSGMFFSVPDGAECPARI,glycan array binding signal (z-score),[17],-0.587
same,glycan array binding signal (z-score),[15],-0.333
